The nature of this assay: qHTS Assay for Modulators of Lamin A Splicing. The following applies: HeLa LMNA splicing GFP/RFP minigene ratio, 48 h. The gist of the method: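 Read-out is the ratio of GFP to DsRed2 object intensity, acquired by 488 nm laser-scanning cytometry on HeLa lamin A-EGFP minigene reporter cells. Compound incubation 48 hrs at 37 °C in Opti-MEM with 2% FBS; DMSO 0.5% final.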
[1] abbreviates: measured here: RFP viability control channel.
The mark [2] stands for this setting: measured here: GFP splicing reporter channel.

This is an account of results in PubChem BioAssay AID1487 (National Center for Advancing Translational Sciences (NCATS), 2009).

Broadly, the AC50 is the concentration giving half of the maximal activity seen.

Structures are written as SMILES. The list shows a part of the results. Shown are side measurements of this screen, not its main read-out; they come without a call. Compounds called inactive in the main read-out are mostly missing here. Words in brackets tell the shape of the fitted curve; partial curves, single points and poor fits give uncertain potencies.

As to `Cc1cn[nH]c1`, under setting [1], the AC50 was 5.62 µM [falling, partial curve, poor fit].

With `Clc1ccc(/C=N/Nc2ncnc3ccccc23)cc1Cl`, the AC50 under setting [2] is 14.1 µM [falling, single point] and the AC50 under setting [1] is 22.4 µM [falling, partial curve].

For the molecule `CCOC(=O)c1c(NC(=O)CSc2nc3ccccc3o2)sc(C)c1C`, the AC50 by setting is: under setting [2], 3.55 µM [rising, partial curve]; under setting [1], 12.6 µM [rising, partial curve].

Consider `O=C(Nc1ccc(Br)c(C(F)(F)F)c1)c1ccccc1`, for which the AC50 was 12.6 µM [rising, single point] under setting [2] and 28.2 µM [rising, single point] under setting [1].

Take `Cc1cc(C)c(C(=O)/C=C/c2cccs2)c(=O)[nH]1`: the AC50 under setting [1] was 31.6 µM [rising, single point].

`Cc1ccccc1NC(=S)N(CCN1CCOCC1)Cc1ccccc1F`: under setting [2], the AC50 was 0.631 µM [rising, single point].

Regarding `COCC(=O)NCc1nc2cccnc2n1Cc1ccc(F)cc1`, the AC50 was 0.0224 µM [falling, full curve, poor fit] under setting [2] and 0.0224 µM [falling, full curve, poor fit] under setting [1].

For `c1ccc(-c2csc(N3CCSCC3)n2)cc1`, the AC50 under setting [2] is 35.5 µM [falling, partial curve].

Turning to `Cc1ccccc1NC(=O)c1ccc(Cl)c(NC(=O)c2ccncc2)c1`, the AC50 is 31.6 µM [rising, single point] under setting [2] and 14.1 µM [rising, single point] under setting [1].

For `O=C(NC(=S)Nc1ccccc1N1CCOCC1)c1ccc(-c2cc(Cl)ccc2Cl)o1`, the AC50 under setting [1] was 31.6 µM [rising, partial curve, poor fit].

As for `Cc1ccc(S(=O)(=O)N(C)C)cc1NC(=S)NC(C)CCC(C)C` (stereo not drawn), the AC50 runs as follows: under setting [2], 12.6 µM [rising, partial curve]; under setting [1], 12.6 µM [rising, partial curve].

`CCC(C(=O)Nc1cc(Cl)ccc1OC)c1ccccc1` (stereo not drawn): the AC50 under setting [2] is 17.8 µM [rising, single point] and the AC50 under setting [1] is 31.6 µM [rising, single point].

Regarding `COc1ccc(Nc2cc(C(=O)NCCCN3CCN(c4ccc(OC)cc4)CC3)c3ccccc3n2)cc1`, under setting [1], the AC50 is 15.8 µM [rising, single point].

Regarding `NNC(=O)c1ccc(Cn2cc(Br)cn2)cc1`, the AC50 reads like this: under setting [2], 11.2 µM [rising, partial curve]; under setting [1], 11.2 µM [rising, partial curve].

Turning to `COc1cccc(-c2cc3nc4c(c(N5CCC6(CC5)OCCO6)n3n2)CCC4)c1`, the AC50 under setting [1] was 22.4 µM [rising, partial curve, poor fit].

For `Cc1ccc(C)c(SCC(=O)Nc2cccc(S(=O)(=O)NC3=NCCCCC3)c2)c1`, the AC50 was 7.08 µM [rising, partial curve] under setting [2] and 20 µM [rising, single point] under setting [1].

For the molecule `O=[N+]([O-])c1ccc(C2CN=C(Nc3ccccc3)S2)cc1` (stereo not drawn), the AC50 under setting [1] was 0.141 µM [falling, full curve, poor fit].

In the case of `O=c1c2cnn(-c3ccccc3)c2ncn1Cc1ccccc1`, the AC50 is 22.4 µM [rising, single point] under setting [2] and 20 µM [rising, partial curve] under setting [1].

For `Cc1cc(C(=O)NC(=S)Nc2cccc(NC(=O)C(C)C)c2)ccc1[N+](=O)[O-]`, under setting [1], the AC50 is 22.4 µM [rising, partial curve].

Regarding `CCc1ccccc1NC(=O)c1ccccc1Sc1ccc([N+](=O)[O-])cc1Cl`, under setting [1], the AC50 was 0.0501 µM [rising, full curve, poor fit].

`O=C(NCC(c1ccc2c(c1)OCO2)N1CCOCC1)c1cccc(Cl)c1` (stereo not drawn): under setting [2], the AC50 is 7.94 µM [falling, partial curve, poor fit].

`Cc1ccc2nc(-c3ccc(SCC(=O)Nc4nnc(C)s4)nc3)[nH]c2c1`: the AC50 under setting [1] is 1.58 µM [rising, full curve, poor fit].

As for `CCOC(=O)C1(Cc2cccc(OC)c2)CCN(C(C)COC)CC1` (stereo not drawn), the AC50 reads like this: under setting [2], 1 µM [falling, single point]; under setting [1], 0.282 µM [falling, full curve, poor fit].

Turning to `COc1ccccc1OCC(=O)NCCSCc1ccc(Cl)cc1`, the AC50 under setting [2] was 11.2 µM [rising, single point] and the AC50 under setting [1] was 35.5 µM [rising, single point].

In the case of `CCN(c1ccccc1)S(=O)(=O)c1ccc(F)c(C(=O)O)c1`, the AC50 under setting [1] was 8.91 µM [falling, full curve, poor fit].

Consider `CCC(C)NS(=O)(=O)c1ccc(S(=O)(=O)N(CCc2ccc(OC)c(OC)c2)Cc2cccs2)cc1` (stereo not drawn), for which the AC50 runs as follows: under setting [2], 3.98 µM [rising, full curve, poor fit]; under setting [1], 3.98 µM [rising, full curve].

In the case of `COc1ccc(C)cc1-n1nnnc1SCc1nc2ccccc2c(=O)[nH]1`, the AC50 under setting [1] was 0.501 µM [falling, full curve, poor fit].

Consider `CSc1nnc(C)c(=O)n1COC(=O)/C=C/c1ccc2c(c1)OCO2`, for which the AC50 under setting [2] was 6.31 µM [rising, partial curve, poor fit].

As to `O=C(Nc1cc(C(F)(F)F)ccc1Cl)c1nc2ccccc2nc1N1CCCCC1`, the AC50 under setting [2] is 4.47 µM [falling, full curve, poor fit].

Consider `COc1ccc(CCNC(=O)CSCc2ccc(Cl)cc2)cc1OC`, for which the AC50 under setting [1] is 17.8 µM [rising, single point].

Take `O=C(Cn1c(=O)nc(-c2ccccc2)c2ccccc21)NCc1ccc(Cl)cc1`: under setting [2], the AC50 was 5.62 µM [falling, partial curve].

With `Cc1cc(C)c(S(=O)(=O)N2CCCCC2)cc1N(C)S(=O)(=O)c1ccc(Cl)cc1`, the AC50 reads like this: under setting [2], 11.2 µM [rising, partial curve, poor fit]; under setting [1], 15.8 µM [rising, single point].

Turning to `COc1c(F)c(F)c(C(=O)Nc2ccc(-c3nc4ccccc4[nH]3)cc2)c(F)c1F`, under setting [2], the AC50 is 0.02 µM [falling, full curve, poor fit].

Regarding `Cc1ccc(N=C2NC(=O)/C(=C/c3cccs3)S2)cc1C`, under setting [2], the AC50 is 0.0316 µM [rising, full curve, poor fit].

With `CCCOC(=O)CSC1=C(C#N)C(c2ccccc2Cl)CC(=O)N1` (stereo not drawn), the AC50 under setting [1] is 35.5 µM [rising, single point].

Consider `Cc1nn(Cc2ccccc2)c(C)c1NC(=O)CSc1nc2c(c(C(F)(F)F)n1)CCc1ccccc1-2`, for which the AC50 under setting [1] is 12.6 µM [rising, single point].

Regarding `CCN(CC)S(=O)(=O)c1ccc(N(C)Cc2ccc(C(F)(F)F)cc2)nc1`, the AC50 by setting is: under setting [2], 12.6 µM [rising, single point]; under setting [1], 15.8 µM [rising, single point].

For `CC[N+](C)(CC)CCOC(=O)C1c2ccccc2Oc2ccccc21`, under setting [1], the AC50 was 3.98 µM [falling, partial curve, poor fit].

As to `COc1cc(NC(=O)Cc2nn(C)c(=O)c3ccccc23)cc(OC)c1OC`, the AC50 under setting [1] was 17.8 µM [rising, partial curve].

Regarding `COc1ccccc1C/C(N)=N/O`, under setting [1], the AC50 was 3.98 µM [falling, full curve, poor fit].

`CC(C)Cn1c2c(c(O)c(C(=O)Nc3nccs3)c1=O)CCCC2`: under setting [1], the AC50 was 10 µM [rising, single point].

Regarding `c1ccc(Nc2nc(-c3cccnc3)nc3ccccc23)cc1`, the AC50 is 12.6 µM [falling, single point] under setting [2] and 22.4 µM [falling, single point] under setting [1].

For the molecule `O=C(Nc1cccc(C(F)(F)F)c1)OCCN1CCN(Cc2ccccc2)CCC1=O`, the AC50 under setting [2] is 25.1 µM [rising, single point] and the AC50 under setting [1] is 35.5 µM [rising, single point].

Turning to `Cc1ccc(C(=O)c2ccc(CC(=O)O)n2C)cc1`, the AC50 under setting [2] was 0.00178 µM [falling, full curve, poor fit].

Regarding `Cc1nc(N2CCN(Cc3ccc4c(c3)OCO4)CC2)nc2c1C(=O)CC(c1ccco1)C2` (stereo not drawn), the AC50 is 8.91 µM [rising, partial curve, poor fit] under setting [2] and 14.1 µM [rising, partial curve] under setting [1].

On to `Cc1cc(=O)n(CC(=O)Nc2ccc([N+](=O)[O-])cc2)c(-n2nc(C)cc2C)n1`, for which the AC50 under setting [1] was 35.5 µM [falling, partial curve, poor fit].

As for `Cc1cc(C)c(S(=O)(=O)N2CCCCC2)c(C)c1N(C)S(=O)(=O)c1ccc(Cl)cc1`, the AC50 is, setting by setting: under setting [2], 35.5 µM [rising, single point]; under setting [1], 35.5 µM [rising, single point].

Turning to `CCCCN(CCCC)CCCOC(=O)c1ccc(N)cc1`, the AC50 runs as follows: under setting [2], 0.501 µM [falling, partial curve]; under setting [1], 0.501 µM [falling, full curve].

In the case of `CCc1cc(C(=O)NNC(=S)Nc2ccccc2C)cs1`, the half-maximal activity concentration (AC50) under setting [1] was 31.6 µM [rising, single point].

For the molecule `CC(=O)Nc1cc2c(cc1NC(=O)Cn1nc(-c3ccccc3F)ccc1=O)OCCO2`, the AC50 is 8.91 µM [rising, partial curve] under setting [2] and 11.2 µM [rising, partial curve, poor fit] under setting [1].

Regarding `CN(C)c1ccc(-c2nccc(Nc3ccc(F)cc3)n2)cc1`, the AC50 is, setting by setting: under setting [2], 11.2 µM [falling, partial curve]; under setting [1], 17.8 µM [falling, partial curve].

As to `Brc1ccc(C=Nc2ccc(Nc3ccccc3)cc2)s1`, the AC50 under setting [1] is 14.1 µM [rising, partial curve].

For the molecule `O=C(N/N=C/C1CC2CCC1C2)c1c[nH]c2ccccc12` (stereo not drawn), the AC50 under setting [2] was 0.0316 µM [falling, full curve, poor fit] and the AC50 under setting [1] is 0.0316 µM [falling, full curve, poor fit].

With `O=C(Nc1cccc([N+](=O)[O-])c1)c1ccc2nc(N3C(=O)CCC3=O)sc2c1`, the AC50 reads like this: under setting [2], 35.5 µM [falling, single point]; under setting [1], 35.5 µM [falling, single point].
